In patent US20130324617A1, “CROWN-LIKE STRUCTURES AS A BIOMARKER FOR CANCER RISK AND CANCER PROGNOSIS” (MEMORIAL SLOAN-KETTERING CANCER CENTER, priority 2011, published 2013):
For at least one compound, name, drawing or mass did not settle the structure.

Experiments:
macrophage-enriched SVF = experiment: PGE2 release into conditioned medium by mammary gland stromal-vascular fraction (SVF); type: cell-based, mouse; conditions: celecoxib 5 μmol/L
[1] = tested on: aromatase in 3T3-L1 cells; experiment: Induction of aromatase mRNA and activity in 3T3-L1 cells by SVF-derived conditioned medium; type: cell-based, mouse; conditions: following Cox-2 inhibition of SVF with celecoxib 5 μmol/L; 3T3-L1 treated 24 hours
[2] = tested on: aromatase in human preadipocytes; experiment: Induction of aromatase mRNA and activity in preadipocytes by macrophage-derived conditioned medium; type: cell-based; conditions: following Cox-2 inhibition in THP-1 cells; preadipocytes treated with CM 24 hours
Procedure: Human visceral preadipocytes (ScienCell™) were grown in preadipocyte medium containing 10% FBS.
THP-1 cells (ATCC) were maintained in RPMI-1640 medium (Invitrogen) supplemented with 10% FBS. These cells were treated with phorbol 12-myristate 13-acetate (10 ng/mL) overnight to differentiate them into macrophages. Human monocytes (Astarte Biologics) were activated with IFNγ (15 ng/mL) and lipopolysaccharide (15 ng/mL) in RPMI-1640 medium for 4 days. THP-1 cells and blood monocyte-derived macrophages were then treated with saturated fatty acids (Nu-CheK Prep) as indicated. […]
Total RNA was isolated using the RNeasy mini kit (Qiagen). […] Relative fold induction was determined using the ddCT (relative quantification) analysis protocol.
To determine aromatase activity, microsomes were prepared from cell lysates and tissues by differential centrifugation using established methods (Subbaramaiah 2006). Aromatase activity was quantified by measurement of the tritiated water released from 1β-[^3H]-androstenedione (Subbaramaiah 2008). […]
Further, to investigate whether conditioned medium from saturated fatty acid-treated macrophages induced aromatase in preadipocytes, THP-1 cells or human blood monocyte-derived macrophages were treated with 0, 2.5, 5 or 10 μmol/L LA, MA, PA or SA as described above to generate CM (n=6). […] Aromatase mRNA and activity levels were determined. […]

**Q.** What does the source list for `Cc1ccc(-c2cc(C(F)(F)F)nn2-c2ccc(S(N)(=O)=O)cc2)cc1` [celecoxib]?
**A.** release of PGE2 into the CM (macrophage-enriched SVF): blocked; ability of SVF-derived CM to induce aromatase mRNA and aromatase activity in 3T3-L1 cells [1]: markedly attenuated; ability of macrophage-derived CM to induce aromatase mRNA or aromatase activity in preadipocytes [2]: attenuated
